{"source": "PubChem BioAssay AID686938 | Drosophila RNAi Screening Center – 2013", "aim": "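Looking for CRAC channel components and the factors controlling them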 (primary screen)", "cells": "Drosophila S2R+ cells", "reagent": "long dsRNA against Drosophila genes, about 0.25 µg dsRNA per well, roughly 10,000 cells", "timing": "5 days of knock-down before the calcium assay", "challenge": "thapsigargin (SERCA pump blocker) to empty calcium stores; entry signal taken 4 min after adding it", "measured": "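Duplicate raw fluo-4 intensities per well from a plate reader, at rest and four minutes after thapsigargin emptied calcium stores; entry-to-rest ratio filled for only some wells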", "reading the numbers": "calcium entry signal: higher = stronger calcium signal after store depletion; resting calcium signal: higher = higher resting calcium signal", "call rule": "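Called when the plate z-score of the entry-to-rest ratio, mean of duplicates, falls below −3; wells with low overall dye signal (Fmax z below −2) or more than five off-targets excluded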", "meaning of the calls": "active = strongly reduced calcium entry; inactive = no strong reduction", "note": "The deposit covers about 23,000 reagents; shown is a random part of those that have a named target and a result. Over the whole deposit, 75 (0.33%) were called active. 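Raw plate signals without normalisation; calls rest on plate z-scores that were not deposited; ratio present for only 364 wells.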 A number with no mark means an inactive call. The numbers tell different reagents against one gene apart. Not stated in the record: the dose of the treatment."}
{"target":"Ncoa6","reagent no.":1,"calcium entry signal, replicate 1 (fluorescence units)":1.94e7,"resting calcium signal, replicate 1 (fluorescence units)":1.54e7}
{"target":"Ncoa6","reagent no.":2,"calcium entry signal, replicate 1 (fluorescence units)":3.34e7,"calcium entry signal, replicate 2 (fluorescence units)":2.73e7,"resting calcium signal, replicate 1 (fluorescence units)":1.73e7,"resting calcium signal, replicate 2 (fluorescence units)":1.43e7}
{"target":"CG32073","reagent no.":1,"calcium entry signal, replicate 1 (fluorescence units)":3.61e7,"calcium entry signal, replicate 2 (fluorescence units)":4.87e7,"resting calcium signal, replicate 1 (fluorescence units)":1.85e7,"resting calcium signal, replicate 2 (fluorescence units)":2.14e7}
{"target":"CG32073","reagent no.":2,"calcium entry signal, replicate 1 (fluorescence units)":3.28e7,"calcium entry signal, replicate 2 (fluorescence units)":4.87e7,"resting calcium signal, replicate 1 (fluorescence units)":1.64e7,"resting calcium signal, replicate 2 (fluorescence units)":2.04e7}
{"target":"Hex-t1","reagent no.":1,"calcium entry signal, replicate 1 (fluorescence units)":3.84e7,"calcium entry signal, replicate 2 (fluorescence units)":4.52e7,"resting calcium signal, replicate 1 (fluorescence units)":2.05e7,"resting calcium signal, replicate 2 (fluorescence units)":2.12e7}
{"target":"CG43795","reagent no.":1,"calcium entry signal, replicate 1 (fluorescence units)":3.24e7,"calcium entry signal, replicate 2 (fluorescence units)":3.73e7,"resting calcium signal, replicate 1 (fluorescence units)":1.70e7,"resting calcium signal, replicate 2 (fluorescence units)":1.75e7}
{"target":"CG43795","reagent no.":2,"calcium entry signal, replicate 1 (fluorescence units)":3.84e7,"calcium entry signal, replicate 2 (fluorescence units)":3.56e7,"resting calcium signal, replicate 1 (fluorescence units)":1.89e7,"resting calcium signal, replicate 2 (fluorescence units)":1.54e7}
{"target":"CG43795","reagent no.":3,"calcium entry signal, replicate 1 (fluorescence units)":3.46e7,"calcium entry signal, replicate 2 (fluorescence units)":4.43e7,"resting calcium signal, replicate 1 (fluorescence units)":1.80e7,"resting calcium signal, replicate 2 (fluorescence units)":2.08e7}
{"target":"CG43795","reagent no.":4,"calcium entry signal, replicate 1 (fluorescence units)":3.78e7,"calcium entry signal, replicate 2 (fluorescence units)":4.53e7,"resting calcium signal, replicate 1 (fluorescence units)":1.95e7,"resting calcium signal, replicate 2 (fluorescence units)":2.05e7}
{"target":"CG43795","reagent no.":5,"calcium entry signal, replicate 1 (fluorescence units)":3.62e7,"calcium entry signal, replicate 2 (fluorescence units)":4.68e7,"resting calcium signal, replicate 1 (fluorescence units)":1.89e7,"resting calcium signal, replicate 2 (fluorescence units)":2.06e7}
{"target":"CG43795","reagent no.":6,"calcium entry signal, replicate 1 (fluorescence units)":3.31e7,"calcium entry signal, replicate 2 (fluorescence units)":4.04e7,"resting calcium signal, replicate 1 (fluorescence units)":1.84e7,"resting calcium signal, replicate 2 (fluorescence units)":1.85e7}
{"target":"CG43795","reagent no.":7,"calcium entry signal, replicate 1 (fluorescence units)":2.81e7,"calcium entry signal, replicate 2 (fluorescence units)":4.48e7,"resting calcium signal, replicate 1 (fluorescence units)":1.41e7,"resting calcium signal, replicate 2 (fluorescence units)":2.17e7}

Continued (2 carried over from the part before).
{"target":"CG43795","reagent no.":6,"calcium entry signal, replicate 1 (fluorescence units)":3.31e7,"calcium entry signal, replicate 2 (fluorescence units)":4.04e7,"resting calcium signal, replicate 1 (fluorescence units)":1.84e7,"resting calcium signal, replicate 2 (fluorescence units)":1.85e7}
{"target":"CG43795","reagent no.":7,"calcium entry signal, replicate 1 (fluorescence units)":2.81e7,"calcium entry signal, replicate 2 (fluorescence units)":4.48e7,"resting calcium signal, replicate 1 (fluorescence units)":1.41e7,"resting calcium signal, replicate 2 (fluorescence units)":2.17e7}
{"target":"CG42390","reagent no.":1,"calcium entry signal, replicate 1 (fluorescence units)":3.18e7,"calcium entry signal, replicate 2 (fluorescence units)":3.32e7,"resting calcium signal, replicate 1 (fluorescence units)":1.62e7,"resting calcium signal, replicate 2 (fluorescence units)":1.57e7}
{"target":"CG42390","reagent no.":2,"calcium entry signal, replicate 1 (fluorescence units)":3.01e7,"calcium entry signal, replicate 2 (fluorescence units)":4.45e7,"resting calcium signal, replicate 1 (fluorescence units)":1.50e7,"resting calcium signal, replicate 2 (fluorescence units)":1.91e7}
{"target":"CG42390","reagent no.":3,"calcium entry signal, replicate 1 (fluorescence units)":7.72e7,"calcium entry signal, replicate 2 (fluorescence units)":3.46e7,"resting calcium signal, replicate 1 (fluorescence units)":3.05e7,"resting calcium signal, replicate 2 (fluorescence units)":1.30e7}
{"target":"CG2209","reagent no.":1,"calcium entry signal, replicate 1 (fluorescence units)":3.10e7,"calcium entry signal, replicate 2 (fluorescence units)":5.86e7,"resting calcium signal, replicate 1 (fluorescence units)":1.57e7,"resting calcium signal, replicate 2 (fluorescence units)":2.68e7}
{"target":"Rab6","reagent no.":1,"calcium entry signal, replicate 1 (fluorescence units)":4.80e7,"resting calcium signal, replicate 1 (fluorescence units)":2.25e7}
{"target":"Snrk","reagent no.":1,"calcium entry signal, replicate 1 (fluorescence units)":3.40e7,"calcium entry signal, replicate 2 (fluorescence units)":4.54e7,"resting calcium signal, replicate 1 (fluorescence units)":1.47e7,"resting calcium signal, replicate 2 (fluorescence units)":2.18e7}
{"target":"Snrk","reagent no.":2,"calcium entry signal, replicate 1 (fluorescence units)":3.89e7,"calcium entry signal, replicate 2 (fluorescence units)":3.53e7,"resting calcium signal, replicate 1 (fluorescence units)":2.16e7,"resting calcium signal, replicate 2 (fluorescence units)":1.65e7}
{"target":"Amnionless","reagent no.":1,"calcium entry signal, replicate 1 (fluorescence units)":4.07e7,"calcium entry signal, replicate 2 (fluorescence units)":4.38e7,"resting calcium signal, replicate 1 (fluorescence units)":1.87e7,"resting calcium signal, replicate 2 (fluorescence units)":1.93e7}
{"target":"CG6000","reagent no.":1,"calcium entry signal, replicate 1 (fluorescence units)":6.05e7,"calcium entry signal, replicate 2 (fluorescence units)":5.51e7,"resting calcium signal, replicate 1 (fluorescence units)":2.67e7,"resting calcium signal, replicate 2 (fluorescence units)":2.37e7}
